# From paper PMC12040169 (PLOS Biology, 2025)
# Some of the results follow.
# Test system: T1, CTL2-GFP (C. trachomatis L2/434/Bu, GFP-expressing)
# T1 construct: L2/434/Bu, GFP-expressing
# Set-up: species or system HeLa; Intracellular C. trachomatis growth in HeLa cells, bulk GFP fluorescence relative to DMSO
# Details: bulk GFP, single well; 28.5 h, 10 µM; inhibitor
row,SMILES,% of control remaining [%]
1,CCCCC12CN3CC(C)(CN(C1)C31C(=O)N(C)c3ccc(C)cc31)C2=O (centres unmarked) [CBK267286],114.557
2,COc1ccc(CC(=O)Nc2ccc(Nc3ccccc3)cc2)cc1 [CBK263884],47.9322
3,Cc1ccnc(SCc2c(Cl)cccc2[N+](=O)[O-])n1 [CBK269632],126.033
4,O=C(CCC(=O)N1CCC2(CC1)CC(=O)c1ccccc1O2)NCC1CCCO1 (centres unmarked) [CBK156525],118.029
5,Cc1oc(C(=O)O)cc1CSC(C)C(=O)O (centres unmarked) [CBK263556],121.77
6,O=C(CN1CCC(C(=O)c2ccc(F)cc2)CC1)c1ccsc1 [CBK149137],87.239
7,CC(C)(C)OC(=O)NCc1ccc(-c2cc(Nc3cccc(Cl)c3)ncn2)cc1 [CBK037842],128.688
8,O=CN1CCc2c([nH]c3ccccc23)C12CCCN(CCOc1ccccc1)C2 (centres unmarked) [CBK039412],81.3225
9,COc1cc(NC(=O)CS(=O)(=O)c2ccccc2)c(OC)cc1Cl [CBK269471],123.715
10,Cc1cc(C(=O)CSc2nncs2)c(C)n1C(C)c1ccccc1 (centres unmarked) [CBK297934],112.984
11,Cc1cccc(OCC2CCCN(C(=O)C3(Cn4cccn4)CC3)C2)c1 (centres unmarked) [CBK306578],108.481
12,O=C(Nc1ccc(Cl)cc1)NC1(C(=O)NCc2ccncc2)CCCCC1 [CBK174259],121.373
13,O=S1(=O)CCCN1c1ccc2[nH]ncc2c1 [CBK010263],132.653
14,CCOc1cccc(CNc2ccc(O)cc2)c1OCc1ccccc1Cl [CBK074473],129.311
15,Cc1nnc(Sc2nc(CN3CCOCC3)nc3scc(-c4cccs4)c23)n1C [CBK297092],92.0883
16,O=C(NC(c1ccc(F)cc1)c1cccs1)c1ccccn1 (centres unmarked) [CBK295636],120.408
17,NC1CCN(C(=O)c2cn(C3CC3)c3cc(Cl)c(F)cc3c2=O)CC1 [CBK168626],156.236
18,O=C(CN1CCOCC1)Nc1ccc(NC(=O)CN2CCOCC2)cc1 [CBK265045],110.028
19,Nc1c(Cl)cc(NC(=O)CCCC(=O)O)cc1Cl [CBK263957],100
20,O=C(c1cc2c([nH]1)CCCC2)N1CCC(CCN2CCOCC2)CC1 [CBK281869],146.929
21,Cc1ccc(C(=O)C(OC(=O)c2ccc(-c3nnc(-c4ccccc4)o3)cc2)c2ccccc2)cc1 (centres unmarked) [CBK265177],105.04
22,c1coc(CCC2NCCn3cccc32)c1 (centres unmarked) [CBK023964F],139.349
23,CCOC(=O)c1csc(C2CCCN2C(=O)c2cc(SC)ccc2Cl)n1 (centres unmarked) [CBK306491],123.683
24,CN(C)CCOc1ncccc1OCCO [CBK000655F],94.617
25,CCS(=O)(=O)N1CC2CCCC(O)(c3cccc(F)c3)C2C1 (centres unmarked) [CBK283108],115.199
26,O=S(=O)(Nc1nc(-c2c(F)cccc2Cl)cs1)c1cc(Cl)c(Cl)s1 [CBK200025],121.639
27,COc1ccc(C2=CC(c3ccc(Cl)cc3)N3N=CNC3=N2)cc1OC (centres unmarked) [CBK287966],137.973

# Compounds listed so far that have a halogen:
row,SMILES,% of control remaining [%]
3,Cc1ccnc(SCc2c(Cl)cccc2[N+](=O)[O-])n1 [CBK269632],126.033
6,O=C(CN1CCC(C(=O)c2ccc(F)cc2)CC1)c1ccsc1 [CBK149137],87.239
7,CC(C)(C)OC(=O)NCc1ccc(-c2cc(Nc3cccc(Cl)c3)ncn2)cc1 [CBK037842],128.688
9,COc1cc(NC(=O)CS(=O)(=O)c2ccccc2)c(OC)cc1Cl [CBK269471],123.715
12,O=C(Nc1ccc(Cl)cc1)NC1(C(=O)NCc2ccncc2)CCCCC1 [CBK174259],121.373
14,CCOc1cccc(CNc2ccc(O)cc2)c1OCc1ccccc1Cl [CBK074473],129.311
16,O=C(NC(c1ccc(F)cc1)c1cccs1)c1ccccn1 (centres unmarked) [CBK295636],120.408
17,NC1CCN(C(=O)c2cn(C3CC3)c3cc(Cl)c(F)cc3c2=O)CC1 [CBK168626],156.236
19,Nc1c(Cl)cc(NC(=O)CCCC(=O)O)cc1Cl [CBK263957],100
23,CCOC(=O)c1csc(C2CCCN2C(=O)c2cc(SC)ccc2Cl)n1 (centres unmarked) [CBK306491],123.683
25,CCS(=O)(=O)N1CC2CCCC(O)(c3cccc(F)c3)C2C1 (centres unmarked) [CBK283108],115.199
26,O=S(=O)(Nc1nc(-c2c(F)cccc2Cl)cs1)c1cc(Cl)c(Cl)s1 [CBK200025],121.639
27,COc1ccc(C2=CC(c3ccc(Cl)cc3)N3N=CNC3=N2)cc1OC (centres unmarked) [CBK287966],137.973

# (continued)

row,SMILES,% of control remaining [%]
1,Cc1nn2cc(-c3n[nH]cc3[N+](=O)[O-])cnc2c1C(=O)O [CBK268883],133.883
2,CC1CCN(Cc2ccc(-c3nnn(CC(=O)NCc4ccc(O)cc4)n3)cc2)CC1 [CBK144156C],121.761
3,O=C1CCCN1CC(=O)N1CCCC1c1nc2ccccc2[nH]1 (centres unmarked) [CBK282315],117.908
4,CC1=NNC(=O)C1C(c1ccc(Cl)cc1Cl)C1C(=O)NN=C1C (centres unmarked) [CBK067756],110.847
5,COC(=O)C(CC(C)C)Nc1nc(OC)cc(OC)n1 (centres unmarked) [CBK058765],120.199
6,CNc1ccc(C(O)(C(F)(F)F)C(F)(F)F)cc1C(O)(C(F)(F)F)C(F)(F)F [CBK268070],125.225
7,O=[N+]([O-])c1ccc(N2CCN(S(=O)(=O)c3ccccc3)CC2)cc1Sc1cccc2cccnc12 [CBK263821],104.667
8,c1nc(OCCN2CCOCC2)cc(N2CCCNCC2)n1 [CBK085466],132.309
9,O=C(O)CCc1nc(-c2ccncc2)no1 [CBK288558],128.508
10,COc1ccc(C(=O)NC(=S)Nc2ccccc2N2CCN(C)CC2)cc1[N+](=O)[O-] [CBK268292C],105.423
11,Cc1cc(S(=O)(=O)Nc2n[nH]cc2C#N)c(C)cc1Cl [CBK044943],96.7824
12,OCCCNc1nccnc1-c1ccccc1Cl [CBK038092],217.457
13,CC(=O)c1c(C)nn(CCC(=O)Nc2ccc(Cl)c(Cl)c2)c1C [CBK269829],104.961
14,CC(C)N(CCOc1nccnc1-c1ccc(OC(F)(F)F)cc1)C(C)C [CBK106848],120.201
15,Cc1c(-c2noc(-c3ccc4c(c3)OCO4)n2)nnn1Cc1ccccc1 [CBK288609],74.5332
16,CC(Oc1ccc(/C=C/[N+](=O)[O-])cc1)C(=O)O (centres unmarked) [CBK264042],125.91
17,CC(=O)OC(C(=O)O)C(OC(C)=O)C(=O)O (centres unmarked) [CBK261063],94.3018
18,NC12CC(=O)CC(CC(c3ccccc3)C1)C2 (centres unmarked) [CBK010323C],138.546
19,COC(=O)c1ccccc1NC(=O)CSc1nnc(-c2ccncc2)[nH]1 [CBK266324],108.191
20,OCCN1CC2(CCN(CCN3CCOCC3)CC2)c2ccccc21 [CBK126766],70.6967
21,Cc1nn(C)c(C)c1C(C)NC(=O)C1CC2C=CC1C21CC1 (centres unmarked) [CBK283076],142.154
22,Cc1cc(COc2nccnc2N2CCN(CCCn3c(=O)[nH]c4ccccc43)CC2)no1 [CBK084199],151.35
23,O=C(O)c1[nH]n(-c2ccc(Cl)cc2)c(=O)c1CCO [CBK287079],126.885
24,Cc1nc2cccnc2n1C1CCN(C(=O)NC2CCCCC2)CC1 [CBK283637],106.573
25,Cc1noc(C)c1S(=O)(=O)Nc1cccc(C(=O)O)c1 [CBK038902],187.498
26,Cc1c(CN(C)C(=O)c2ccc(COc3ccc(Cl)cc3)cc2)cnn1C [CBK265756],53.9885
27,CCn1nc(C(=O)Nc2ccccc2-c2ccc(OC)cc2)c2ccccc2c1=O [CBK285864],136.275

row,SMILES,% of control remaining [%]
1,CCC(C)(C)c1ccc(S(=O)(=O)NCc2ccc(C(F)(F)F)cc2)cc1 [CBK044820],75.1271
2,CCc1nc(-c2ccc(N(C)C)nc2)n(C)n1 [CBK306897],141.493
3,O=S(=O)(NC1CCCCC1n1cc(-c2ccccc2)nn1)c1ccc(Cl)cc1 (centres unmarked) [CBK266391],185.736
4,C=CCn1c(S)nnc1COc1cccc2ccccc12 [CBK267292],135.188
5,Cc1cc2nc(C(=O)NCCCn3ccnc3C(C)C)cc(C)n2n1 [CBK307022],121.288
6,CCOc1ccc(-c2cc(C(=O)N3CCN(C)CC3)c3ccccc3n2)cc1 [CBK066900],106.048
7,COc1cccc(C(=O)Nc2ccccc2C(=O)Nc2cccc(C(=O)O)c2C)c1 [CBK265768],120.319
8,Cc1cccc(N2CCN(CC(=O)Nc3ccc(S(N)(=O)=O)cc3)CC2)c1C [CBK269369],134.942
9,O=C(CN1CCCCC1Cn1cccn1)NCc1ccccn1 (centres unmarked) [CBK306146],140.11
10,COc1ccccc1-c1cnc2[nH]c(=O)n(C3CCCCC3)c2n1 [CBK064203],125.824
11,NS(=O)(=O)c1ccc(Nc2nc3nonc3nc2Nc2ccc(S(N)(=O)=O)cc2)cc1 [CBK261110],97.7302
12,CC(=O)c1ccc(-c2nc(NC(=O)c3cccc([N+](=O)[O-])c3)cnc2-c2ccc(F)c(Cl)c2)s1 [CBK036816],108.43
13,COc1ccc(CCN2CNc3c(c(=O)n(C)c(=O)n3C)C2)cc1OC [CBK074818],130.406
14,COc1cccc(C(=O)NNC(=O)Nc2ccccc2)c1 [CBK261608],99.7485
15,Cc1c(Br)c([N+](=O)[O-])nn1C(C)C(=O)NCc1ccco1 (centres unmarked) [CBK269108],117.775
16,O=C(CSc1n[nH]c(=O)n1C1CCCCC1)NCc1ccc(N2CCCC2=O)cc1 [CBK299785],116.257
17,CCOC(=O)c1ccnc(-c2cc3ccccc3o2)c1 [CBK149253],94.0952
18,CC1(C)CC(=O)Nc2ccccc2S1 [CBK025483],110.005
19,COc1ccc2ncc(C#N)c(Nc3ccc(OC)c(OC)c3)c2c1 [CBK287808],140.672
20,N#CC(/N=C/c1ccc(C#Cc2ccccc2)cc1)=C(C#N)/N=C/c1ccc(C#Cc2ccccc2)cc1 [CBK262066],105.184
21,COc1ccc(OCCN2CCC3(CC2)CN(C(=O)CO)c2ccccc23)cc1 [CBK131512],100.218
22,Cn1c(O)c(CCNc2cc([C@H]3C[C@@H](N)C3)nc(C3CC3)n2)cnc1=O [CBK306819],107.159
23,Cc1ccc(OCc2occc2C(=O)NCCn2ccnc2C)cc1 [CBK306725],166.743
24,CCCCOC(=O)c1ccc(NC(=O)c2c(Cl)cccc2Cl)cc1 [CBK263664],109.94
25,O=S(=O)(c1ccc2ccccc2c1)c1cnns1 [CBK001887],104.049
26,CN(C)c1cccc(-c2cc(N3CCN(c4ccccn4)CC3)ncn2)c1 [CBK037825],186.863

# Pulled by structure from the entries so far (2):
row,SMILES,% of control remaining [%]
27,COc1ccc(C2=CC(c3ccc(Cl)cc3)N3N=CNC3=N2)cc1OC (centres unmarked) [CBK287966],137.973
15,Cc1c(Br)c([N+](=O)[O-])nn1C(C)C(=O)NCc1ccco1 (centres unmarked) [CBK269108],117.775
